# Measurements reported in PubChem BioAssay AID743121 (NCATS, 2013)
# Test: 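Knock-downs that sensitise breast cancer cells to camptothecin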 (primary screen)
# Cells: MDA-MB-231 cells, a human breast cancer line
# Reagent: single siRNA against human genes, 20 nM siRNA (0.8 pmol per well)
# Time to read-out: 120 h (drug added 48 h after transfection, read 72 h later)
# Challenge: camptothecin 20 nM (about EC30) for 72 h; vehicle 0.1% DMSO in parallel plates
# Measurement: 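Cell viability by ATP luminescence (CellTiter-Glo) as % of non-targeting siRNA wells, and the log2 ratio of viability without drug over viability with camptothecin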
# Reading the numbers: log2 vehicle/camptothecin viability: higher = stronger sensitisation to camptothecin
# Call rule: 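Active genes have an RSA gene-level p-value below 0.001, computed from the ratios of their separate siRNAs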
# Here is a random part of about 26,000 deposited reagents. Over the whole deposit, 167 (0.63%) were called active. 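Calls are per gene from RSA p-values that are not deposited; an individual active-marked siRNA can sensitise only weakly.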 Reagents against one gene are numbered here. Further read-outs or replicates are left out here.
The opening 3 entries as a preview:
gene symbol,reagent,log2 vehicle/camptothecin viability,call
SERPING1 (serpin family G member 1),1,0.071,inactive
SERPING1 (serpin family G member 1),2,0.188,inactive
SERPING1 (serpin family G member 1),3,-0.177,inactive

Main list, repeating the preview:
gene symbol,reagent,log2 vehicle/camptothecin viability,call
SERPING1 (serpin family G member 1),1,0.071,inactive
SERPING1 (serpin family G member 1),2,0.188,inactive
SERPING1 (serpin family G member 1),3,-0.177,inactive
SERPING1 (serpin family G member 1),4,0.608,inactive
TNFRSF9 (TNF receptor superfamily member 9),1,-0.282,inactive
TNFRSF9 (TNF receptor superfamily member 9),2,-0.239,inactive
TNFRSF9 (TNF receptor superfamily member 9),3,-0.362,inactive
TNFRSF9 (TNF receptor superfamily member 9),4,0.0877,inactive
EP300 (EP300 lysine acetyltransferase),1,0.136,inactive
EP300 (EP300 lysine acetyltransferase),2,-0.0499,inactive
EP300 (EP300 lysine acetyltransferase),3,-0.335,inactive
EP300 (EP300 lysine acetyltransferase),4,-0.335,inactive
NR2C2AP (nuclear receptor 2C2 associated protein),1,-0.51,inactive
NR2C2AP (nuclear receptor 2C2 associated protein),2,-0.555,inactive
NR2C2AP (nuclear receptor 2C2 associated protein),3,-0.272,inactive
NR2C2AP (nuclear receptor 2C2 associated protein),4,0.172,inactive
AFP (alpha fetoprotein),1,-0.118,inactive
AFP (alpha fetoprotein),2,-0.309,inactive
AFP (alpha fetoprotein),3,-0.11,inactive
"RAB3A (RAB3A, member RAS oncogene family)",1,-0.0206,inactive
"RAB3A (RAB3A, member RAS oncogene family)",2,0.167,inactive
"RAB3A (RAB3A, member RAS oncogene family)",3,-0.308,inactive
KIFC1 (kinesin family member C1),1,0.648,inactive
KIFC1 (kinesin family member C1),2,-0.262,inactive
KIFC1 (kinesin family member C1),3,-0.369,inactive
KIFC1 (kinesin family member C1),4,0.282,inactive
GRIA1 (glutamate ionotropic receptor AMPA type subunit 1),1,0.0831,inactive
GRIA1 (glutamate ionotropic receptor AMPA type subunit 1),2,0.00576,inactive
GRIA1 (glutamate ionotropic receptor AMPA type subunit 1),3,-0.225,inactive
GRIA1 (glutamate ionotropic receptor AMPA type subunit 1),4,-0.557,inactive
